Assay results as given in article doi:10.1101/2021.11.18.469188.
These are yes or no findings as the source states them, for the method shown. A result given as binding can be weak or reduced; the word gives no strength.

Amino acid sequences for entries named in this document (tags omitted). A change or cut given only in a name is not applied to a line headed by its entry. Residues count along the entry.
UniProt P54646, residues 291-552: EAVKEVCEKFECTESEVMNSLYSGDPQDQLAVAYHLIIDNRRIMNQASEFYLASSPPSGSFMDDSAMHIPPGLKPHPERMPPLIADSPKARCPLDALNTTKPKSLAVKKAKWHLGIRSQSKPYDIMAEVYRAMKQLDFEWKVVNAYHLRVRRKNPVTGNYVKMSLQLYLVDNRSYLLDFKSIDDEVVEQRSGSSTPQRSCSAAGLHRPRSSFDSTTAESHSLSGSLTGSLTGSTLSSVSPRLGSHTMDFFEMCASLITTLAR
UniProt P62330: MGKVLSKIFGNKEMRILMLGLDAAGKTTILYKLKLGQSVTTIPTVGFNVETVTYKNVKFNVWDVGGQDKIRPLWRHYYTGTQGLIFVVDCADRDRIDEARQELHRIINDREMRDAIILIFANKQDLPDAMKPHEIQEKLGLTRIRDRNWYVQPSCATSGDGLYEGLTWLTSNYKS

Target: GST-AMPK-C (291-552 a.a.) (UniProt P54646)
Assay: pull-down

“His-Arf6 T27N-d13N (from UniProt P62330)” was tested, and the binding was “binds”.
